# Measured values reported in patent US7410966B2, “Use of and some novel imidazopyridines” (AstraZeneca AB, priority 2002, dated 2008).
# Structures can show the parent of a compound that is named as a salt. Some entries share one result that the patent states for a list of compounds.
# Biological target: T1, recombinant human Itk kinase domain fused with GST (Homo sapiens, UniProt Q08881)
# T1 construct: recombinant human Itk kinase domain fused with GST (Glutathione S-Transferase); GST (Glutathione S-Transferase); made in house; host or cells: High Five insect cells
# T1 sequence (Q08881 363-615 limits assumed): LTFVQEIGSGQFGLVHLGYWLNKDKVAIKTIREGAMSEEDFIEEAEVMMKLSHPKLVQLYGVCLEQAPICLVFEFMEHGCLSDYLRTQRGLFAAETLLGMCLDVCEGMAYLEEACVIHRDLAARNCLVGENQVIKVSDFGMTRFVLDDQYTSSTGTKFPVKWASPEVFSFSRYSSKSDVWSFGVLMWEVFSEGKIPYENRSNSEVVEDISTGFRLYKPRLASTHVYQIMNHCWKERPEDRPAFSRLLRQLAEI
# Assay: Itk LANCE TRF Assay
# Assay type: biochemical
# Details: 2 μM biotinylated peptide substrate, 50 μM ATP, 50 minutes RT, read-out: Inhibition of Kinase Itk (IC50 μM)
row,SMILES,IC50
1,"Cc1ccc(-c2c(Cl)cnc3[nH]c(-c4ccc(OCCN5CCOCC5)cc4)nc23)cc1 [Example 238, 6-Chloro-7-(4-methylphenyl)-2-[4-(2-morpholin-4-ylethoxy)phenyl]-3H-imidazo[4,5-b]pyridine]",< 25 µM
2,"Cc1c(Br)cnc2nc(-c3ccc(NS(=O)(=O)c4cccc(C#N)c4)cc3)[nH]c12 [Example 261, N-[4-(6-Bromo-7-methyl-1H-imidazo[4,5-b]pyridin-2-yl)phenyl]-3-cyanobenzenesulfonamide]",< 25 µM
3,Brc1cnc2[nH]c(-c3ccc(OCCN4CCCCC4c4cccnc4)cc3)nc2c1 (stereo not drawn) [Example 92],< 25 µM
4,"Brc1cnc2[nH]c(-c3ccc(OCCNCc4cccs4)cc3)nc2c1 [Example 83, N-{2-[4-(6-Bromo-3H-imidazo[4,5-b]pyridin-2-yl)phenoxy]ethyl}-N-(thien-2-ylmethyl)amine bis(trifluoroacetate)]",< 25 µM
5,"Oc1ccc(-c2nc3cc(Br)cnc3[nH]2)cc1Cl [Example 15, 4-(6-Bromo-3H-imidazo[4,5-b]pyridin-2-yl)-2-chlorophenol]",< 25 µM
6,"COc1ccc(CNc2ccc(-c3nc4cc(Br)cnc4[nH]3)cc2)cc1 [Example 180, N-[4-(6-Bromo-3H-imidazo[4,5-b]pyridin-2-yl)phenyl]-N-(4-methoxybenzyl)amine bis(trifluoroacetate)]",< 25 µM
7,"Cn1cncc1CNc1ccc(-c2nc3cc(Br)cnc3[nH]2)cc1 [Example 202, N-[4-(6-Bromo-3H-imidazo[4,5-b]pyridin-2-yl)phenyl]-N-[(1methyl-1H-imidazol-5-yl)methyl]amine bis(trifluoroacetate)]",< 25 µM
8,"COc1ccc(S(=O)(=O)Nc2ccc(-c3nc4ncc(Cl)c(Cl)c4[nH]3)cc2)cc1 [Example 267, N-[4-(6,7-Dichloro-1H-imidazo[4,5-b]pyridin-2-yl)phenyl]-4-methoxybenzenesulfonamide]",< 25 µM
9,"Oc1ccc(-c2nc3cc(Br)cnc3[nH]2)c(Cl)c1 [Example 17, 4-(6-Bromo-3H-imidazo[4,5-b]pyridin-2-yl)-3-chlorophenol]",< 25 µM
10,"Cc1c(Br)cnc2nc(-c3ccc([N+](=O)[O-])cc3)[nH]c12 [Example 259, 6-Bromo-7-methyl-2-(4-nitrophenyl)-1H-imidazo[4,5-b]pyridine]",< 25 µM
11,"NC(=O)C1CCCN(CCOc2ccc(-c3nc4cc(Br)cnc4[nH]3)cc2)C1 (stereo not drawn) [Example 96, 1-{2-[4-(6-Bromo-3H-imidazo[4,5-b]pyridin-2-yl)phenoxy]ethyl}piperidine-3-carboxamide bis(trifluoroacetate)]",< 25 µM
12,"COc1cccc(CNc2ccc(-c3nc4cc(Br)cnc4[nH]3)cc2)c1 [Example 182, N-[4-(6-Bromo-3H-imidazo[4,5-b]pyridin-2-yl)phenyl]-N-(3-methoxybenzyl)amine bis(trifluoroacetate)]",< 25 µM
13,"CC(C)[C@@H](CO)NCCOc1ccc(-c2nc3cc(Br)cnc3[nH]2)cc1 [Example 114, (2S)-2-({2-[4-(6-Bromo-3H-imidazo[4,5-b]pyridin-2-yl)phenoxy]ethyl}amino)-3-methylbutan-1-ol bis(trifluoroacetate)]",< 25 µM
14,"COc1ccccc1CNCCOc1ccc(-c2nc3cc(Br)cnc3[nH]2)cc1 [Example 87, N-{2-[4-(6-Bromo-3H-imidazo[4,5-b]pyridin-2-yl)phenoxy]ethyl}-N-(2-methoxybenzyl)amine bis(trifluoroacetate)]",< 25 µM
15,"CCc1cccc(Nc2c(Cl)cnc3nc(-c4ccc(OCCN5CCOCC5)cc4)[nH]c23)c1 [Example 223, 6-Chloro-N-(3-ethylphenyl)-2-{4-[2-(4-morpholinyl)ethoxy]phenyl}-1H-imidazo[4,5-b]pyridin-7-amine]",< 25 µM
16,"Brc1cnc2[nH]c(-c3ccc(OCCCN4CCCC4)cc3)nc2c1 [Example 48, 6-Bromo-2-[4-(3-pyrrolidin-1-ylpropoxy)phenyl]-3H-imidazo[4,5-b]pyridine]",< 25 µM
17,"Clc1cnc2nc(-c3ccc(N4CCOCC4)cc3)[nH]c2c1Cl [Example 254, 6,7-Dichloro-2-[4-(4-morpholinyl)phenyl]-1H-imidazo[4,5-b]pyridine]",< 25 µM
18,"CCOC(=O)N1CCC(NCCOc2ccc(-c3nc4cc(Br)cnc4[nH]3)cc2)CC1 [Example 73, Ethyl 4-({2-[4-(6-bromo-3H-imidazo[4,5-b]pyridin-2-yl)phenoxy]ethyl}amino)piperidine-1-carboxylate bis(trifluoroacetate)]",< 25 µM
19,"COc1cccc(-c2c(Cl)cnc3[nH]c(-c4ccc(OCCN5CCOCC5)cc4)nc23)c1 [Example 239, 6-Chloro-7-(3-methoxyphenyl)-2-[4-(2-morpholin-4-ylethoxy)phenyl]-3H-imidazo[4,5-b]pyridine]",< 25 µM
20,"NC(=O)[C@@H]1CCCN1CC(O)COc1ccc(-c2nc3cc(Br)cnc3[nH]2)cc1 (stereo partly drawn) [Example 157, 1-{3-[4-(6-Bromo-3H-imidazo[4,5-b]pyridin-2-yl)phenoxy]-2-hydroxypropyl}prolinamide bis(trifluoroacetate)]",< 25 µM

row,SMILES,IC50
1,"COCCNCC(O)COc1ccc(-c2nc3cc(Br)cnc3[nH]2)cc1 (stereo not drawn) [Example 148, 1-[4-(6-Bromo-3H-imidazo[4,5-b]pyridin-2-yl)phenoxy]-3-[(2-methoxyethyl)amino]propan-2-ol bis(trifluoroacetate)]",< 25 µM
2,"COc1cc(-c2nc3cc(Br)cnc3[nH]2)ccc1O [Example 14, 4-(6-Bromo-3H-imidazo[4,5-b]pyridin-2-yl)-2-methoxyphenol]",< 25 µM
3,"COc1cccc(N2CCN(CC(O)COc3ccc(-c4nc5cc(Br)cnc5[nH]4)cc3)CC2)c1 (stereo not drawn) [Example 173, 1-[4-(6-Bromo-3H-imidazo[4,5-b]pyridin-2-yl)phenoxy]-3-[4-(3-methoxyphenyl)piperazin-1-yl]propan-2-ol bis(trifluoroacetate)]",< 25 µM
4,CC(=O)Nc1ccc(Nc2c(Cl)cnc3nc(-c4ccc(OCCN5CCOCC5)cc4)[nH]c23)cc1 [Example 232],< 25 µM
5,"Clc1cnc2nc(-c3ccc(OCCN4CCOCC4)cc3)[nH]c2c1NC1CCCC1 [Example 210, 6-Chloro-N-cyclopentyl-2-{4-[2-(4-morpholinyl)ethoxy]phenyl}-1H-imidazo[4,5-b]pyridin-7-amine]",< 25 µM
6,"Cc1c(Br)cnc2nc(-c3ccc(NS(=O)(=O)c4ccc(C#N)cc4)cc3)[nH]c12 [Example 262, N-[4-(6-Bromo-7-methyl-1H-imidazo[4,5-b]pyridin-2-yl)phenyl]-4-cyanobenzenesulfonamide]",< 25 µM
7,"COc1cc(O)ccc1-c1nc2cc(Br)cnc2[nH]1 [Example 16, 4-(6-Bromo-3H-imidazo[4,5-b]pyridin-2-yl)-3-methoxyphenol]",< 25 µM
8,"CCOC(=O)N1CCC(NCC(O)COc2ccc(-c3nc4cc(Br)cnc4[nH]3)cc2)CC1 (stereo not drawn) [Example 144, Ethyl 4-({3-[4-(6-bromo-3H-imidazo[4,5-b]pyridin-2-yl)phenoxy]-2-hydroxypropyl}amino)piperidine-1-carboxylate bis(trifluoroacetate)]",< 25 µM
9,"CC(C)C(CO)NCC(O)COc1ccc(-c2nc3cc(Br)cnc3[nH]2)cc1 (stereo not drawn) [Example 172, 2-({3-[4-(6-Bromo-3H-imidazo[4,5-b]pyridin-2-yl)phenoxy]-2-hydroxypropyl}amino)-3-methylbutan-1-ol bis(trifluoroacetate)]",< 25 µM
10,"Nc1ccc(-c2nc3c(Nc4ccccc4)c(Cl)cnc3[nH]2)cc1 [Example 256, 2-(4-Aminophenyl)-6-chloro-N-phenyl-3H-imidazo[4,5-b]pyridin-7-amine]",< 25 µM
11,"Nc1c(Cl)cnc2nc(-c3ccc(OCCN4CCOCC4)cc3)[nH]c12 [Example 212, 6-Chloro-2-{4-[2-(4-morpholinyl)ethoxy]phenyl}-1H-imidazo[4,5-b]pyridin-7-amine]",< 25 µM
12,Clc1cnc2[nH]c(-c3ccc(NCCN4CCOCC4)cc3)nc2c1Nc1ccccc1 [Example 268],< 25 µM
13,"NCCCOc1ccc(-c2nc3cc(Br)cnc3[nH]2)cc1 [Example 45, 3-[4-(6-Bromo-3H-imidazo[4,5-b]pyridin-2-yl)phenoxy]propan-1-amine]",< 25 µM
14,"Cc1nc[nH]c1CNc1ccc(-c2nc3cc(Br)cnc3[nH]2)cc1 [Example 191, N-[4-(6-Bromo-3H-imidazo[4,5-b]pyridin-2-yl)phenyl]-N-[(4-methyl-1H-imidazol-5-yl)methyl]amine bis(trifluoroacetate)]",< 25 µM
15,"Nc1cc(-c2nc3c(Cl)c(Cl)cnc3[nH]2)ccc1N1CCOCC1 [Example 255, [5-(6,7-Dichloro-3H-imidazo[4,5-b]pyridin-2-yl)-2-morpholin-4-ylphenyl]amine]",< 25 µM
16,"Fc1cccc(-c2nc3cc(Br)cnc3[nH]2)c1 [Example 20, 6-Bromo-2-(3-fluorophenyl)-3H-imidazo[4,5-b]pyridine trifluoroacetate]",< 25 µM
17,"Brc1cnc2[nH]c(-c3ccc(OCCN4CCCCC4)cc3)nc2c1 [Example 6, 6-Bromo-2-[4-(2-piperidin-1-ylethoxy)phenyl]-3H-imidazo[4,5-b]pyridine]",< 25 µM
18,"CN(C)C1CCN(CCOc2ccc(-c3nc4cc(Br)cnc4[nH]3)cc2)C1 (stereo not drawn) [Example 58, 1-{2-[4-(6-Bromo-3H-imidazo[4,5-b]pyridin-2-yl)phenoxy]ethyl}-N,N-dimethylpyrrolidin-3-amine bis(trifluoroacetate)]",< 25 µM
19,"OC1CCN(CCOc2ccc(-c3nc4cc(Br)cnc4[nH]3)cc2)CC1 [Example 112, 1-{2-[4-(6-Bromo-3H-imidazo[4,5-b]pyridin-2-yl)phenoxy]ethyl}piperidin-4-ol bis(trifluoroacetate)]",< 25 µM
